Measured values: the supplement of paper PMC12542422
Counter-ions that a name gives are not always drawn. ± gives the standard deviation of the averaged measurements. This is one part of the list. These are raw signals, not scaled to a control.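 Across three biological replicates, HeLa cells were imaged for ribosome assembly using ENP1 staining (export block present or absent) or inducible tagged ribosomal protein reporters. Machine learning classified each cell's signal localization relative to DMSO controls. Hits exceeded the DMSO false-positive mean by five standard deviations and were then visually confirmed.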

tested on: HeLa RPL29-GFP reporter; test: fraction of reporter-positive cells with nuclear (nucleolar or nucleolar/nucleoplasmic) RPL29-GFP (MainHitrate); higher = more cells with nucleolar/nuclear readout signal (for ENP1 -LMB: less RNAPI inhibition; for +LMB ENP1 and RP reporters: stronger nuclear/nucleolar retention, i.e. ribosome biogenesis defect); details: concentration: 1 µM; treatment time: 6 h

For `CCCCCCCCCCCCCCCCCCCCCCO` [Docosanol (Abreva)], which “fraction of reporter-positive cells with nuclear” value (“fraction” below) is on record?
Its value is 0.201 ± 0.084.

`O=C1CC[C@@H](C(=O)N2CSC[C@H]2C(=O)O)N1` [Pidotimod] was tested. Which “fraction” value did it give?
Its value is 0.219 ± 0.062.

Which “fraction” value does the source give for `CCCC(=O)O[C@]1(C(=O)COC(C)=O)CC[C@H]2[C@@H]3C[C@H](F)C4=CC(=O)C=C[C@]4(C)[C@@]3(F)[C@@H](O)C[C@@]21C` [Difluprednate] here?
The value was 0.257 ± 0.085.

For `C[C@]12CCC(=O)C=C1[C@@H]1C[C@@H]1[C@H]1[C@@H]3[C@@H]4C[C@@H]4[C@@]4(CCC(=O)O4)[C@@]3(C)CC[C@@H]12` [Drospirenone], which “fraction” value is on record?
Its value is 0.202 ± 0.058.

With `C[C@]12CC[C@@H]3c4ccc(O)cc4C[C@@H](CCCCCCCCC[S+]([O-])CCCC(F)(F)C(F)(F)F)[C@H]3[C@@H]1CC[C@@H]2O` (stereo not given in full) [Fulvestrant (Faslodex)] as the compound, how does the “fraction” value read?
Its value is 0.206 ± 0.073.

For `CC(=O)OCC[N+](C)(C)C` [Acetylcholine chloride], which “fraction” value is on record?
The value was 0.233 ± 0.057.

For `CC(C)[N+]1(C)[C@@H]2CC[C@H]1C[C@@H](OC(=O)C(CO)c1ccccc1)C2` (stereo not given in full) [Ipratropium bromide], which “fraction” value is on record?
The value was 0.21 ± 0.046.

Which “fraction” value does the source give for `Cc1ccnc(NS(=O)(=O)c2ccc(N)cc2)n1` [Sulfamerazine] here?
The value was 0.215 ± 0.067.

`Clc1ccc(C(Cn2ccnc2)OCc2ccsc2Cl)c(Cl)c1` (stereo not given) [Tioconazole] was tested. Which “fraction” value did it give?
Its value is 0.211 ± 0.076.

Which “fraction” value does the source give for `Nc1ccn(C[C@@H](CO)OCP(=O)(O)O)c(=O)n1` [Cidofovir (Vistide)] here?
The value was 0.242 ± 0.062.

`C[C@@H](O[C@H]1OCCN(Cc2nn(P(=O)(O)O)c(=O)[nH]2)[C@H]1c1ccc(F)cc1)c1cc(C(F)(F)F)cc(C(F)(F)F)c1` [Fosaprepitant dimeglumine] was tested. Which “fraction” value did it give?
The value was 0.198 ± 0.073.

With `Clc1ccc2c(c1)CCc1cccnc1C2=C1CCNCC1` [Desloratadine] as the compound, how does the “fraction” value read?
Its value is 0.205 ± 0.052.

For `CN1CCN(C2=Nc3ccccc3Oc3ccc(Cl)cc32)CC1` [Loxapine Succinate], which “fraction” value is on record?
The value was 0.225 ± 0.06.

With `CS(=O)(=O)c1ccc([C@@H](O)[C@@H](CO)NC(=O)C(Cl)Cl)cc1` [Thiamphenicol (Thiophenicol)] as the compound, how does the “fraction” value read?
Its value is 0.2 ± 0.042.

How did the “fraction” value turn out when `COc1ccc2cc(CCC(C)=O)ccc2c1` [Nabumetone] was run?
Its value is 0.227 ± 0.044.

`CC(=O)Oc1ccccc1C(=O)Nc1ncc([N+](=O)[O-])s1` [Nitazoxanide (Alinia, Annita)] was tested. Which “fraction” value did it give?
Its value is 0.202 ± 0.09.

`CCOc1ccccc1OC(c1ccccc1)C1CNCCO1` (stereo not given) [Reboxetine mesylate] was tested. Which “fraction” value did it give?
The value was 0.209 ± 0.04.

How did the “fraction” value turn out when `N=C(N)Nc1ccc(C(=O)Oc2ccc3cc(C(=N)N)ccc3c2)cc1` [Nafamostat mesylate] was run?
Its value is 0.193 ± 0.064.

With `CC[C@H](C)C(=O)O[C@H]1CCC=C2C=C[C@H](C)[C@H](CC[C@@H]3C[C@@H](O)CC(=O)O3)[C@H]21` [Mevastatin] as the compound, how does the “fraction” value read?
Its value is 0.22 ± 0.066.

How did the “fraction” value turn out when `CC(=O)O[C@H]1CC[C@@]2(C)C(=CC[C@@H]3[C@@H]2CC[C@]2(C)C(c4cccnc4)=CC[C@@H]32)C1` [Abiraterone Acetate (CB7630)] was run?
Its value is 0.217 ± 0.061.

With `N[C@@H](CSCCCO)C(=O)O` [Fudosteine] as the compound, how does the “fraction” value read?
Its value is 0.241 ± 0.057.

For `Cc1c(Nc2ncccc2C(=O)O)cccc1C(F)(F)F` [Flunixin meglumin], which “fraction” value is on record?
The value was 0.231 ± 0.058.

With `Cc1nnc(C(C)C)n1C1C[C@H]2CC[C@@H](C1)N2CC[C@H](NC(=O)C1CCC(F)(F)CC1)c1ccccc1` (stereo in doubt) [Maraviroc] as the compound, how does the “fraction” value read?
The value was 0.222 ± 0.11.

With `C[N+](C)(C)CCCCCC[N+](C)(C)C` [Hexamethonium bromide] as the compound, how does the “fraction” value read?
Its value is 0.278 ± 0.073.

Which “fraction” value does the source give for `O=C1c2cccc3c2[C@H](CCC3)CN1[C@@H]1CN2CCC1CC2` [Palonosetron HCl] here?
Its value is 0.211 ± 0.067.

How did the “fraction” value turn out when `CCOC(=O)C1=C(COCCN)NC(C)=C(C(=O)OC)C1c1ccccc1Cl` (stereo not given) [Amlodipine besylate (Norvasc)] was run?
The value was 0.218 ± 0.086.

`CCCNCC(O)COc1ccccc1C(=O)CCc1ccccc1` (stereo not given) [Propafenone (Rytmonorm)] was tested. Which “fraction” value did it give?
Its value is 0.225 ± 0.082.

How did the “fraction” value turn out when `COc1ccc(-n2nc(C(N)=O)c3c2C(=O)N(c2ccc(N4CCCCC4=O)cc2)CC3)cc1` [Apixaban] was run?
Its value is 0.209 ± 0.069.

Which “fraction” value does the source give for `O=C(O)c1ccc(NC(=O)[C@H](Cc2ccc(O)cc2)NC(=O)c2ccccc2)cc1` [Bentiromide] here?
Its value is 0.29 ± 0.25.

Which “fraction” value does the source give for `Cc1nc2n(c(=O)c1CCN1CCC(c3noc4cc(F)ccc34)CC1)CCCC2O` (stereo not given) [Paliperidone (Invega)] here?
The value was 0.204 ± 0.078.

`CCOc1ccc2ccccc2c1C(=O)N[C@@H]1C(=O)N2[C@@H]1SC(C)(C)[C@@H]2C(=O)O` [nafcillin sodium monohydrate] was tested. Which “fraction” value did it give?
Its value is 0.227 ± 0.045.

How did the “fraction” value turn out when `O=C(CCCN1CC=C(n2c(=O)[nH]c3ccccc32)CC1)c1ccc(F)cc1` [Droperidol] was run?
Its value is 0.212 ± 0.048.

With `CNCC[C@H](Oc1cccc2ccccc12)c1cccs1` [Duloxetine HCl (Cymbalta)] as the compound, how does the “fraction” value read?
The value was 0.209 ± 0.061.

For `CN(C)[C@@H]1C(O)=C(C(=O)NCN2CCCC2)C(=O)[C@@]2(O)C(O)=C3C(=O)c4c(O)cccc4[C@@](C)(O)[C@H]3C[C@@H]12` [Rolitetracycline], which “fraction” value is on record?
The value was 0.299 ± 0.28.

For `NNc1nncc2ccccc12` [Hydralazine hydrochloride], which “fraction” value is on record?
Its value is 0.229 ± 0.084.

`NC(=O)Cc1cccc(C(=O)c2ccccc2)c1N` [Nepafenac] was tested. Which “fraction” value did it give?
The value was 0.195 ± 0.076.

`O=C1O[C@H]([C@@H](O)CO)C(O)=C1O` [Vitamin C (Ascorbic acid)] was tested. Which “fraction” value did it give?
Its value is 0.222 ± 0.029.

Which “fraction” value does the source give for `Cc1cc(=O)[nH]c(=S)[nH]1` [Methylthiouracil] here?
The value was 0.234 ± 0.074.

Which “fraction” value does the source give for `O=C(CCNNC(=O)c1ccncc1)NCc1ccccc1` [Nialamide] here?
Its value is 0.274 ± 0.23.

How did the “fraction” value turn out when `Cc1nccn1CC1CCc2c(c3ccccc3n2C)C1=O` (stereo not given) [Ondansetron (Zofran)] was run?
Its value is 0.244 ± 0.083.
